Amino acid sequences for entries named in this document (tags omitted). A change or cut given only in a name is not applied to a line headed by its entry.
UniProt Q9XZ31: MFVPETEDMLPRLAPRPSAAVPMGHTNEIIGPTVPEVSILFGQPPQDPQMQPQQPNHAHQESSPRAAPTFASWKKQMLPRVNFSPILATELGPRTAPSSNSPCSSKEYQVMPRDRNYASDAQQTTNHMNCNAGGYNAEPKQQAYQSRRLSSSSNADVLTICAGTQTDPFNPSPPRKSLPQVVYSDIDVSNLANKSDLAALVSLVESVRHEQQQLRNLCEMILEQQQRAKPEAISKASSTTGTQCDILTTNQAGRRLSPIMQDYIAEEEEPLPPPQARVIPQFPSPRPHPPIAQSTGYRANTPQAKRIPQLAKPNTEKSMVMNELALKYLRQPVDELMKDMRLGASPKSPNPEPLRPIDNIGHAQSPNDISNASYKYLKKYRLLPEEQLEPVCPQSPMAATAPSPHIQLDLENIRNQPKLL

According to paper PMC4229625:

Tests used:
Test in all cases: pull-down; recombinant GST-Ana2 (or its fragments or mutants) on beads, incubated with active MBP-Plk4 or inactive MBP-Plk4^KD, then with ^35S-Met-labeled proteins made by in vitro transcription and translation; SDS-PAGE and autoradiography; only the target purified
[1] = target: GST-Ana2 treated with inactive Plk4 (MBP-Plk4^KD) (Drosophila) (UniProt Q9XZ31)
[2] = target: Ana2 S318A mutant (Drosophila) (UniProt Q9XZ31)
[3] = target: Ana2 S365A mutant (Drosophila) (UniProt Q9XZ31)
[4] = target: Ana2 S370A mutant (Drosophila) (UniProt Q9XZ31)
[5] = target: Ana2 S373A mutant (Drosophila) (UniProt Q9XZ31)

B1: ^35S-Met-labeled Sas4 (protein, UniProt Q9VI72 1-901)
chain: MQEAGESPVGMPLSQEAIAQRLAALSRWQDEQKRLLQERQSNHRVLLGLEQRNMYKMLGLLHQETESHENSVLEEWDEEHSIQMPRLAADPDEHEPEISMADPQPAKPKRPFLRRGEGLKQRFKINPDQLRLENLPRYKFANAHPQFRTPQMKKGILKKQVKSPPNPAPPPAPKPSAQLDDLNEQRFQQMLIGKNACSSTPDLKSSYASSTTASSTSPRVRFVEQKSRAGQTTHADDEASSEASPMTGVCWAKVLDTQSIKPAQIQRRSAQIRVEDDSNVSIFELLEQKATEGNIDMNSSCIRTFMARKDQRRRVADDSDHIVVTQQVRQMRLQPQVDQMLVQELQEGDEEDTEPSSDQTLTMTPIQVGNTKVRVRFSDSNDTHEYSDATSLNDGSNIQLFEQFKSALFQALEQKKKSSPSKESDEPITKDLQEKANLVRTRLEELETEIATFKEQNAQLLRLRQQHELEKAKCTQDHMEAMERVHDEKIQAEIYLHDERMKIEEERRKFEQQMRLQKSNANSKEKKEIAALKQEVEGLQLQLKQKEQAHVSAQARLRAQLRASEKEQRNYRDEIELLRKENKRLEQELVKIGRENNSKMLQEINRNIARLAPKVLPSATMSDILDENGRRTQSLDGTAGKPAKQREAQNRRQSSGSAQVRSRSRSLSRNKKTPYALDESYASSSSVESEEVQPPVTAPKAATPPPAANSSSDFKREITNADGSKDIWYPNGNLKKISADGMNLRMLYFNKDIKETNIREGTVKYYYAETNTWHTSYLDGLEILEFPNGQTEHRRKDGTVEIHFPNNSIKIVDPSDTEKLEEWRYADGTHLVQLRNGDKILNLPNGQKEIHTKLNKRREYPDGTVKLVYPDGSQETRYSNGRVRLKDKDGKLIMDTDYAKY
modifications: ^35S-methionine-labeled
[1]
  binding: binds

B2: ^35S-Met-labeled Sas6 (protein, UniProt Q9VAC8 1-472)
chain: MWPPGSEDSYSAKMDYGKSVVNILPSVEMLVNFNGEMTRSSKRSCLLYAERVDFKELLQLRLTEKSDQRRMYITTVDSASFQDLKQDQSLNVSFSGFIDNVVRMLKDCQSGKLELHLTTRDQNLSSGREVHDYYLQFVEIRSFKNLVHLSLPCRSAPLNTVLFYINSMLEASHKKQYILEQSMQQMQAEINAQRAHAERLTTENTNIREALAENTRILEEKHAAEVHQYQEKLSKINEQRSNELERNRRAISGFQAQLDKASLEKAELKSAQEQAEKRCQTLSEELSCCKARVCTLKEQNDKLHGDVANIRKHERKLEYKIEDLKQHTVELQEHIQKGNKEKANIAAELEAEKKILHTKRQALEMASEEISKANQIIVKQSQELLNLKKTIAWRTEVALQQEKAVQAKESLLSLRENELREARITIEKLREEIPQQLQSMRNFAQGLEQKYSKQILILKERLAIPTGKENRR
modifications: ^35S-methionine-labeled
[2]
  binding: binds
[3]
  binding: binds
[4]
  binding: binds
[5]
  binding: binds

B3: ^35S-Met-labeled Rcd4 (protein, UniProt Q9VLM6 1-199)
chain: MPHKRRNRVHANQRNFTARRVSVAKLSSAPPNVLVESCNGSHADNSSPDSPKAKEGAMTNGKNPEIKLAVPKCNTTVRKQNEAHIISNIKLDMNLNKDSNFIAPQITKKMNFAPNRVVFGVLVPLNVNDSVLVPHNRKPDALKHTSKESESCKAISEPQLADYAEKVDPMIMAVKEPVLHLDWEPGPFDFFGAYRRTYN
modifications: ^35S-methionine-labeled
[1]
  binding: no binding

No constants are given. Whether binding was seen depends on the method and setting. Binding seen in cells or lysates may run through a third protein. A result given as binding can be weak or reduced; the word gives no strength.
